No constants are given. Whether binding was seen depends on the method and setting. In cells and extracts the contact can be indirect. For part of these data: Binding calls can cover weak binding; strength is not graded here.
Key:
[1] = target: murine MMP2 Flag (matrix metalloproteinase 2, full length) (murine) (UniProt P33434); test: co-IP; HEK293T cotransfected (5 ug of each plasmid, Lipofectamine 3000); 200 ug lysate incubated overnight with anti-FLAG M2 magnetic beads, eluted with 3x FLAG peptide, Western blot; Mmp2-Flag or Mmp9-Flag with Tlr2-HA, Tlr4-Myc, both, or Myd88-HA
murine TLR4 Myc (murine) = murine TLR4 Myc (murine) (UniProt Q9QUK6); test: co-IP; reverse co-IP: HEK293T cotransfected; 200 ug lysate incubated overnight with anti-HA agarose or anti-c-MYC agarose, eluted with HA or c-MYC peptide, blot probed for MMP2
[2] = target: murine TLR2 HA (full-length Tlr2-HA) (murine) (UniProt Q9QUN7); test: as above
MyD88 HA = MyD88 HA (UniProt P22366); test: as above
MMP9 Flag = MMP9 Flag (UniProt P41245); test: co-IP; HEK293T cotransfected (5 ug of each plasmid, Lipofectamine 3000); 200 ug lysate incubated overnight with anti-FLAG M2 magnetic beads, eluted with 3x FLAG peptide, Western blot; Mmp2-Flag or Mmp9-Flag with Tlr2-HA, Tlr4-Myc, both, or Myd88-HA

The chains behind the UniProt entries cited, without tags or fusion partners. Where a name states a change or a piece, a line headed by the entry shows the natural chain unless it says otherwise. Residues count along the entry.
UniProt P33434: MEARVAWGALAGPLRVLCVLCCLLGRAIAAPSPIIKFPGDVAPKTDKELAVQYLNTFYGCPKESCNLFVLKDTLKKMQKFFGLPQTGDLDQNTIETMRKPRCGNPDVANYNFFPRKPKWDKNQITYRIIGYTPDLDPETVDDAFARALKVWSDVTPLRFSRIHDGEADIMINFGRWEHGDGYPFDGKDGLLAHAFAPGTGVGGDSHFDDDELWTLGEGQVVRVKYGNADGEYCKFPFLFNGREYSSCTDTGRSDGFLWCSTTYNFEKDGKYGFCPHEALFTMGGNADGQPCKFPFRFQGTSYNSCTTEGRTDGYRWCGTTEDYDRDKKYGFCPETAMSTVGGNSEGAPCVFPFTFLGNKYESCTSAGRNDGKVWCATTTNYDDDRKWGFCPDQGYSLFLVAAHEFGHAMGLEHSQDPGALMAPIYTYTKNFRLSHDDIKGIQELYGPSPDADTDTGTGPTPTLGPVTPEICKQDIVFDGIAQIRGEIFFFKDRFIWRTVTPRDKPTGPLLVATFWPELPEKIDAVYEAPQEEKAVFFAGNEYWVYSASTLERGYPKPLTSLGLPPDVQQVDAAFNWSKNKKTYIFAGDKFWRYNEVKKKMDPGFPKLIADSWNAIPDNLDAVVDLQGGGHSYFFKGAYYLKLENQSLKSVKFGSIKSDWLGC
UniProt Q9QUK6, residues 26-835: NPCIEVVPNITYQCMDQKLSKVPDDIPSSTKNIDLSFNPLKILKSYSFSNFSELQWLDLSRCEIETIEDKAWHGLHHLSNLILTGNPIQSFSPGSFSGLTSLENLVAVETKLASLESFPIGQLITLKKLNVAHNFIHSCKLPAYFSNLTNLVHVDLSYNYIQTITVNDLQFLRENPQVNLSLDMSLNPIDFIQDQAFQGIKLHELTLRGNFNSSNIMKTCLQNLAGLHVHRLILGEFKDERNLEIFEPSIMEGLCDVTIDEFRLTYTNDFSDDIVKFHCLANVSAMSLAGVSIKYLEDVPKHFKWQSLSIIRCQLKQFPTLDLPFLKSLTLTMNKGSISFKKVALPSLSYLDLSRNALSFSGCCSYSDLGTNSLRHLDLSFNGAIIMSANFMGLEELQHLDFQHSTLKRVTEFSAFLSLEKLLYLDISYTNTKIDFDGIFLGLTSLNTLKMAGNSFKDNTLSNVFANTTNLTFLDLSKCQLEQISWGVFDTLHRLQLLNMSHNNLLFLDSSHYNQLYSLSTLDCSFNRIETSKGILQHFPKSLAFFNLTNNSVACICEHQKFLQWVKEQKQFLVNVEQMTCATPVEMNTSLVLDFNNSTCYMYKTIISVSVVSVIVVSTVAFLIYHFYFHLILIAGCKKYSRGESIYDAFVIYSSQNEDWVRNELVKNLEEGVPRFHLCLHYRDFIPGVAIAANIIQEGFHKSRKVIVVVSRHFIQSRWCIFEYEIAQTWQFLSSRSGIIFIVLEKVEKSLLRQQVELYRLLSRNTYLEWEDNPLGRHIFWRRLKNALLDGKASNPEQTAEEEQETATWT
UniProt Q9QUN7, residues 25-784: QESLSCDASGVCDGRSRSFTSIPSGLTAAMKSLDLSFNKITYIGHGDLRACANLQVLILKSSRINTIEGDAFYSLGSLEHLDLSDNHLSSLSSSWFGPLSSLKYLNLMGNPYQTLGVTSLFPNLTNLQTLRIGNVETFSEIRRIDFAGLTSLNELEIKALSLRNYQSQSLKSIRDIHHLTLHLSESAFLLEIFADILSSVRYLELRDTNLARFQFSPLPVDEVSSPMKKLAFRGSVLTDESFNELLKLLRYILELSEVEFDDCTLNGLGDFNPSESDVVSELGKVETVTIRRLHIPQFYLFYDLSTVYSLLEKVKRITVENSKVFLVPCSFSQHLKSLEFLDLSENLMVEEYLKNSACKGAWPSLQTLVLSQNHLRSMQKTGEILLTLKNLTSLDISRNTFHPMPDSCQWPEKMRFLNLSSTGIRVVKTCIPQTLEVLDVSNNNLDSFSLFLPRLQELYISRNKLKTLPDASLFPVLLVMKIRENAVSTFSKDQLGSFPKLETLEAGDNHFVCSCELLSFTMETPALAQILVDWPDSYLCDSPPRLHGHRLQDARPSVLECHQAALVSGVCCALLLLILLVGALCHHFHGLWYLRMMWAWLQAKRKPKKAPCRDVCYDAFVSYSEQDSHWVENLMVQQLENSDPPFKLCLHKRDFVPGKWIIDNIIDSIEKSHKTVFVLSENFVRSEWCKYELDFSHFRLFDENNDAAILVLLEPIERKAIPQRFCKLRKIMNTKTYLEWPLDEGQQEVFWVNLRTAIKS
UniProt P22366: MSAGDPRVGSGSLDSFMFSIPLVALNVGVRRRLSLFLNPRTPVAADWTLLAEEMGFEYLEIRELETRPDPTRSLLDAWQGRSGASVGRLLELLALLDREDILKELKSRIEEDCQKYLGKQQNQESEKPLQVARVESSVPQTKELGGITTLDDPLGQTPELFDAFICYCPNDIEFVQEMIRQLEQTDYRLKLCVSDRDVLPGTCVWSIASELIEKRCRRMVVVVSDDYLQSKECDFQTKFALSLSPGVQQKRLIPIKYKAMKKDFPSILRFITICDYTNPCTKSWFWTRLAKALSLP
UniProt P41245: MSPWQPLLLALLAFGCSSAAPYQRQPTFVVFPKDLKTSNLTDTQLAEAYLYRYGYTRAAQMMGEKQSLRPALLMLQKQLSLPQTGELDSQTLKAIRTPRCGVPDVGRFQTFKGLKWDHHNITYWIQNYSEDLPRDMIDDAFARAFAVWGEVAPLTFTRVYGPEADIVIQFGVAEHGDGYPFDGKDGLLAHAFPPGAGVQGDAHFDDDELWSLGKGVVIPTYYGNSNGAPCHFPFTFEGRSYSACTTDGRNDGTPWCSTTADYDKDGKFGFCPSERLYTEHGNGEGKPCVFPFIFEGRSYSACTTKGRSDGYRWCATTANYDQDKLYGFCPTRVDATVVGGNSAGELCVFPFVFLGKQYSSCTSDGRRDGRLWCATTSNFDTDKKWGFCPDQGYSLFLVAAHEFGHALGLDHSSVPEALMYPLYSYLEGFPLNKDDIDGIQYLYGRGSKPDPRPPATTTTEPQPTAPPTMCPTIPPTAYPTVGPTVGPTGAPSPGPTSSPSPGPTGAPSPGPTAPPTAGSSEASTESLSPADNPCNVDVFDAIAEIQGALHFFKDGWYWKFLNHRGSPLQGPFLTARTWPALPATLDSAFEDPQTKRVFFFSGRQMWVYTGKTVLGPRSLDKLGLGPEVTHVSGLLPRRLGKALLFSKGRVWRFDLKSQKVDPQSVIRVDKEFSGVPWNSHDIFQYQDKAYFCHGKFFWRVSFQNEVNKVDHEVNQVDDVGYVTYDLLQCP

Row | Substance | binding [1] | binding (murine TLR4 Myc (murine)) | binding [2] | binding (MyD88 HA) | binding (MMP9 Flag)
1 | MyD88 HA (from UniProt P22366 1-296) | no binding | – | – | – | –
2 | murine MMP2 Flag (matrix metalloproteinase 2, full length) (from UniProt P33434) (enzyme) | – | binds | binds | no binding | –
3 | murine TLR4 Myc (from UniProt Q9QUK6 26-835) (receptor) | binds | – | – | – | no binding

From article PMC8262464
